Reference: article PMC9450262
No constants are given. Whether binding was seen depends on the method and setting. In cells and extracts the contact can be indirect. Some entries that bind do so weakly or less than the wild type.

Protein sequences, listed by entry. Tags and fused reporters are not part of them.
UniProt Q80SY4: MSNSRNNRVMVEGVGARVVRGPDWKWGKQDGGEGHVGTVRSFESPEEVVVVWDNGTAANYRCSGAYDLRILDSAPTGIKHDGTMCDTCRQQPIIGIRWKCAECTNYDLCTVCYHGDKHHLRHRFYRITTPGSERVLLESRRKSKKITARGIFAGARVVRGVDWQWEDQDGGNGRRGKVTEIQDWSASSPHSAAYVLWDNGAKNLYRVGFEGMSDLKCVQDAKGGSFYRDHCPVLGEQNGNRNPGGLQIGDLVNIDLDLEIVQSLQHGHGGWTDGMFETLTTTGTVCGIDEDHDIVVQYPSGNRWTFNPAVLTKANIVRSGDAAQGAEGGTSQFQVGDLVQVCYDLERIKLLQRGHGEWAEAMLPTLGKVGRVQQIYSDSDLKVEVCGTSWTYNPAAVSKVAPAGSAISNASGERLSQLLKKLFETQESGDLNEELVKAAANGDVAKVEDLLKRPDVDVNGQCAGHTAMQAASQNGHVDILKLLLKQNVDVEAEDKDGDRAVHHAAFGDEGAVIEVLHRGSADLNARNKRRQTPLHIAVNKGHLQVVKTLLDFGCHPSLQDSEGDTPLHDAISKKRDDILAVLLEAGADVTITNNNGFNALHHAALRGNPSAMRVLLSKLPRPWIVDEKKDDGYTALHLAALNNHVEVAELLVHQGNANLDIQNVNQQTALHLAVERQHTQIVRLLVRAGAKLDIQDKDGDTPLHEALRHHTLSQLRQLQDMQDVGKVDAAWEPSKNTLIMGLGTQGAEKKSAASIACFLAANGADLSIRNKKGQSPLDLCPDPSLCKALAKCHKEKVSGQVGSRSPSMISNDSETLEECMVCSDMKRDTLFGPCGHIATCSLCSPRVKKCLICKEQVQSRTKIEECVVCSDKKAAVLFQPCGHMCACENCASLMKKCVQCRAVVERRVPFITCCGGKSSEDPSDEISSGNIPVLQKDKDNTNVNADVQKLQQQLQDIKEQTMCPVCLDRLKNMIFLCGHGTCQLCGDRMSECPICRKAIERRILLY

Molecular target: T1, Acid ceramidase (ASAH1) (mouse (endogenous in primary pancreatic acinar cells of C57BL/6 mice)) (UniProt Q9WV54)
T1 sequence: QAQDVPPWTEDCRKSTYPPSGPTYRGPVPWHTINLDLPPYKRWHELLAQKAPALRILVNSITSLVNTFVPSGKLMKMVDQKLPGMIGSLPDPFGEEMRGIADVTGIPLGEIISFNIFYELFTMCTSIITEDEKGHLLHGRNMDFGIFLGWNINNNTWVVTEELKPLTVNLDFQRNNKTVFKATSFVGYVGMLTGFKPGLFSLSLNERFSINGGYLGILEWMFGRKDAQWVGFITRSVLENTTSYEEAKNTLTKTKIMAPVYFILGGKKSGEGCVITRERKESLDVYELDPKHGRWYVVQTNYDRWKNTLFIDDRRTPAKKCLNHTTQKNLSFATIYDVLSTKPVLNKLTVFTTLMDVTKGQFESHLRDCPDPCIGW
Assay: co-IP; lysate of primary pancreatic acinar cells (saline or 200 nM cerulein plus 10 ng/mL LPS, 6 h) incubated overnight at 4 °C with anti-ASAH1 antibody (mouse), Protein A/G magnetic beads; Western blotting

binding: binds
Substance: E3 ligase Mind bomb homolog 1 (MIB1) (from UniProt Q80SY4 1-1006) (enzyme)
